Measurements as given in paper PMC7162800.
These are yes or no findings as the source states them, for the method shown. In cells and extracts the contact can be indirect. Some binding calls cover weakened binding; strength is not graded here.

Biological target: T1, RANK (RANKL receptor) (mouse (endogenous in OCPs from C57BL/6 bone marrow)) (UniProt O35305)
T1 sequence: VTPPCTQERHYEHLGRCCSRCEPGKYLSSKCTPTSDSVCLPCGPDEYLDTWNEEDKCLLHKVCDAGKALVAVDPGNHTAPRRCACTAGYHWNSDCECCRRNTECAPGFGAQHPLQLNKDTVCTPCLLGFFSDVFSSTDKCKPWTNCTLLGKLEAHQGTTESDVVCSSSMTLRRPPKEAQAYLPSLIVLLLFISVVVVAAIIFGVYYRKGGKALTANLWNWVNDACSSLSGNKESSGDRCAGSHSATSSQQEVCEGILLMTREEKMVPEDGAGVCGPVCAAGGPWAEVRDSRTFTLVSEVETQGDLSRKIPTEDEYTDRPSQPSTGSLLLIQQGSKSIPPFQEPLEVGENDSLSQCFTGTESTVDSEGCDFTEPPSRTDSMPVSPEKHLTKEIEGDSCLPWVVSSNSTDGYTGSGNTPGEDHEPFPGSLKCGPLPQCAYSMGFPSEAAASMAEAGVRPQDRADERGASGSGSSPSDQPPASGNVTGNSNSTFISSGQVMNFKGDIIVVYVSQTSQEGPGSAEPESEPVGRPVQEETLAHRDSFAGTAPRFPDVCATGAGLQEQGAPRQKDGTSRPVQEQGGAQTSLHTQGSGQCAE
Assay: co-IP; lysates of OCPs treated with or without RANKL for 2 h, with or without 17β-estradiol; IP with anti-RANK or anti-TRAF6 antibody, blot with anti-TRAF6 or anti-RANK antibody, respectively

B1: TRAF6 (protein, UniProt P70196 1-530)
chain: MSLLNCENSCGSSQSSSDCCAAMAASCSAAVKDDSVSGSASTGNLSSSFMEEIQGYDVEFDPPLESKYECPICLMALREAVQTPCGHRFCKACIIKSIRDAGHKCPVDNEILLENQLFPDNFAKREILSLTVKCPNKGCLQKMELRHLEDHQVHCEFALVNCPQCQRPFQKCQVNTHIIEDCPRRQVSCVNCAVSMAYEEKEIHDQSCPLANIICEYCGTILIREQMPNHYDLDCPTAPIPCTFSVFGCHEKMQRNHLARHLQENTQLHMRLLAQAVHNVNLALRPCDAASPSRGCRPEDPNYEETIKQLESRLVRQDHQIRELTAKMETQSMYVGELKRTIRTLEDKVAEMEAQQCNGIYIWKIGNFGMHLKSQEEERPVVIHSPGFYTGRPGYKLCMRLHLQLPTAQRCANYISLFVHTMQGEYDSHLPWPFQGTIRLTILDQSEALIRQNHEEVMDAKPELLAFQRPTIPRNPKGFGYVTFMHLEALRQGTFIKDDTLLVRCEVSTRFDMGGLRKEGFQPRSTDAGV
  binding: binds
